Here are results for one sequence from article doi:10.1101/411223.

The chains behind the UniProt entries cited, without tags or fusion partners. Residues count along the entry.
UniProt P13393, 61-240: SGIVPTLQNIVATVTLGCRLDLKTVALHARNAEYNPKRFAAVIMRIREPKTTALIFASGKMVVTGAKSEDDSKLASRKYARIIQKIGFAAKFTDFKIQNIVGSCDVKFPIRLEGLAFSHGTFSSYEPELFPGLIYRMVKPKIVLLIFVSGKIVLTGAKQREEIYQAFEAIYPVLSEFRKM

Construct, isoform or probe ends are uncertain for at least one entry. For part of these data: No signal at the amounts used counts as a negative. For part of these data: Weaker means in comparison with the reference protein, sequence or condition of that experiment.

Data set [1] deals with yTBP (61-240) (Saccharomyces cerevisiae) (UniProt P13393). Kind of data set: EMSA. To be noted: residues 61-240. (In EMSA bound probe runs differently from free probe, usually more slowly.)
In data set [2] the test system is yTBP (61-240) + TFIIA. The data set can be described thus: EMSA.

In the case of “TGTATGTATATAAAAC (double strand) [FAM TATA-box dsDNA]”, the binding result in data set [1] (100 nM DNA, yTBP 10-400 nM) is given as “binds”; in data set [1] (yTBP 100 nM with Kap114p >100 nM, shift disappears) it was “no binding”; in data set [2] (100 nM yTBP and DNA, dose-dependent supershift with TFIIA, ternary complex), “binds”; in data set [2] (with Kap114p (Δ347-371) up to 800 nM, supershift still observed), “binds”; in data set [2] (with Kap114p (Δ899-956) up to 800 nM, supershift still observed), “binds”; in data set [2] (with increasing Kap114p, supershift dramatically reduced), “binds more weakly”.
